Experimental data from patent publication US6080724A, “Peptides which can be used as vectors for the intracellular addressing of active molecules” (Centre National de la Recherche Scientifique (CNRS), priority 1995, dated 2000).
Part of at least one peptide drawing is inferred or uncertain, most often the ends. Some entries repeat one wording, which the source may state once for all of them. Residues, ends and D or L forms follow the SMILES beside them. *: point of attachment. Biotin = O=C1N[C@H]2[C@H](CS[C@H]2CCCCC(=O)*)N1; Ava = NCCCCC(=O)O

Legend:
[1] = tested on: E15 embryonic cortex cells
[2] = tested on: E15 cortex and striatum cells; test: Cellular localization of biotinylated peptides by confocal microscopy (fluorescent streptavidin); format: cell-based; settings: 2 μM, 2 h, 37° C., streptavidin-FITC
Experimental: The cells were then washed, fixed and stained with fluorescent streptavidin.
The entry of the peptides of Table II was tested only by confocal microscopy; indeed, the absence of lysine in these peptides makes the attachments very difficult and therefore requires a very rapid observation which is incompatible with transfers onto filters or ELISA tests (multiple washes).
The E15 cortex and striatum cells are cultured on glass coverslips at a density of 25,000 cells/cm^2 for 2 days. The peptides are all added at a final concentration of 20 μM. […] The sections observed by confocal microscopy are presented in FIGS. 3 (37° C.) and 4 (4° C.). The cells which have integrated the peptide appear fluorescent, on a black background.
E15 cortex and striatum cells are cultured on glass coverslips at a density of 25,000 cells/cm^2 for 2 days. The peptides are added at a final concentration of 20 μM for peptide 43-58 and of 2 μM for the others and the cells are incubated for 2 h at 37° C. […] The results are illustrated in FIG. 6.

| Compound | internalization (conclusion from the results with the peptides of Table I) [1] | internalization and cytoplasmic and nuclear addressing (localization) [2] |
| --- | --- | --- |
| CC[C@H](C)[C@H](NC(=O)[C@H](CCCCN)NC(=O)[C@@H](NC(=O)[C@H](Cc1c[nH]c2ccccc12)NC(=O)[C@H](Cc1ccccc1)NC(=O)[C@H](CCC(N)=O)NC(=O)[C@H](CC(N)=O)NC(=O)[C@H](CCCNC(=N)N)NC(=O)[C@H](CCCNC(=N)N)NC(=O)[C@H](CCSC)NC(=O)[C@H](CCCCN)NC(=O)[C@H](Cc1c[nH]c2ccccc12)NC(=O)[C@H](CCCCN)NC(=O)[C@H](CCCCN)NC(=O)CCCCNC(=O)CCCC[C@@H]1SC[C@@H]2NC(=O)N[C@@H]21)[C@@H](C)CC)C(=O)N[C@@H](CCC(N)=O)C(=O)N[C@@H](CCCNC(=N)N)C(=O)O [58-43, Biot-Apa-Lys-Lys-Trp-Lys-Met-Arg-Arg-Asn-Gln-Phe-Trp-Ile-Lys-Ile-Gln-Arg] ({Biotin-Ava}-KKWKMRRNQFWIKIQR-OH) | are internalized | – |
| N=C(N)NCCC[C@H](NC(=O)[C@H](CCCNC(=N)N)NC(=O)[C@H](Cc1c[nH]c2ccccc12)NC(=O)[C@H](CCCNC(=N)N)NC(=O)[C@H](CCCNC(=N)N)NC(=O)[C@H](Cc1c[nH]c2ccccc12)NC(=O)[C@H](Cc1c[nH]c2ccccc12)NC(=O)[C@H](CCCNC(=N)N)NC(=O)[C@H](CCCNC(=N)N)NC(=O)[C@H](Cc1c[nH]c2ccccc12)NC(=O)[C@H](Cc1c[nH]c2ccccc12)NC(=O)[C@H](CCCNC(=N)N)NC(=O)[C@H](CCCNC(=N)N)NC(=O)[C@H](Cc1c[nH]c2ccccc12)NC(=O)[C@H](CCCNC(=N)N)NC(=O)[C@H](CCCNC(=N)N)NC(=O)CCCCNC(=O)CCCC[C@@H]1SC[C@@H]2NC(=O)N[C@@H]21)C(=O)O [W/R, Biot-Apa-Arg-Arg-Trp-Arg-Arg-Trp-Trp-Arg-Arg-Trp-Trp-Arg-Arg-Trp-Arg-Arg] ({Biotin-Ava}-RRWRRWWRRWWRRWRR-OH) | – | Internalization and cytoplasmic and nuclear addressing |
| CC[C@@H](C)[C@@H](NC(=O)[C@@H](CCCCN)NC(=O)[C@H](NC(=O)[C@@H](CCC(N)=O)NC(=O)[C@@H](CCCNC(=N)N)NC(=O)CCCCNC(=O)CCCC[C@@H]1SC[C@@H]2NC(=O)N[C@@H]21)[C@H](C)CC)C(=O)N[C@H](Cc1c[nH]c2ccccc12)C(=O)N[C@H](Cc1ccccc1)C(=O)N[C@H](CCC(N)=O)C(=O)N[C@H](CC(N)=O)C(=O)N[C@H](CCCNC(=N)N)C(=O)N[C@H](CCCNC(=N)N)C(=O)N[C@H](CCSC)C(=O)N[C@H](CCCCN)C(=O)N[C@H](Cc1c[nH]c2ccccc12)C(=O)N[C@H](CCCCN)C(=O)N[C@H](CCCCN)C(=O)O [43-58D, Biot-Apa-Arg-Gln-Ile-Lys-Ile-Trp-Phe-Gln-Asn-Arg-Arg-Met-Lys-Trp-Lys-Lys] | are internalized | – |
| CC[C@H](C)[C@H](NC(=O)[C@H](CCCCN)NC(=O)[C@@H](NC(=O)[C@H](CCC(N)=O)NC(=O)[C@H](CCCNC(=N)N)NC(=O)CCCCNC(=O)CCCC[C@@H]1SC[C@@H]2NC(=O)N[C@@H]21)[C@@H](C)CC)C(=O)N[C@@H](Cc1c[nH]c2ccccc12)C(=O)N[C@@H](Cc1ccccc1)C(=O)N[C@@H](CCC(N)=O)C(=O)N[C@@H](CC(N)=O)C(=O)N[C@@H](CCSC)C(=O)N[C@@H](CCCNC(=N)N)C(=O)N[C@@H](CCCNC(=N)N)C(=O)N[C@@H](CCCCN)C(=O)N[C@@H](Cc1c[nH]c2ccccc12)C(=O)N[C@@H](CCCCN)C(=O)N[C@@H](CCCCN)C(=O)O [Met-Arg, Biot-Apa-Arg-Gln-Ile-Lys-Ile-Trp-Phe-Gln-Asn-Met-Arg-Arg-Lys-Trp-Lys-Lys] ({Biotin-Ava}-RQIKIWFQNMRRKWKK-OH) | – | Internalization and cytoplasmic and nuclear addressing |
